Results are given in words; binding and its absence hold for the method and conditions named. Binding seen in cells or lysates may run through a third protein. These calls come from enrichment with a bait or labelling near it, and not all partners need be listed.
B1: SART1 (protein, UniProt O43290 1-800)
chain: MGSSKKHRGEKEAAGTTAAAGTGGATEQPPRHREHKKHKHRSGGSGGSGGERRKRSRERGGERGSGRRGAEAEARSSTHGRERSQAEPSERRVKREKRDDGYEAAASSKTSSGDASSLSIEETNKLRAKLGLKPLEVNAIKKEAGTKEEPVTADVINPMALRQREELREKLAAAKEKRLLNQKLGKIKTLGEDDPWLDDTAAWIERSRQLQKEKDLAEKRAKLLEEMDQEFGVSTLVEEEFGQRRQDLYSARDLQGLTVEHAIDSFREGETMILTLKDKGVLQEEEDVLVNVNLVDKERAEKNVELRKKKPDYLPYAEDESVDDLAQQKPRSILSKYDEELEGERPHSFRLEQGGTADGLRERELEEIRAKLRLQAQSLSTVGPRLASEYLTPEEMVTFKKTKRRVKKIRKKEKEVVVRADDLLPLGDQTQDGDFGSRLRGRGRRRVSEVEEEKEPVPQPLPSDDTRVENMDISDEEEGGAPPPGSPQVLEEDEAELELQKQLEKGRRLRQLQQLQQLRDSGEKVVEIVKKLESRQRGWEEDEDPERKGAIVFNATSEFCRTLGEIPTYGLAGNREEQEELMDFERDEERSANGGSESDGEENIGWSTVNLDEEKQQQDFSASSTTILDEEPIVNRGLAAALLLCQNKGLLETTVQKVARVKAPNKSLPSAVYCIEDKMAIDDKYSRREEYRGFTQDFKEKDGYKPDVKIEYVDETGRKLTPKEAFRQLSHRFHGKGSGKMKTERRMKKLDEEALLKKMSSSDTPLGTVALLQEKQKAQKTPYIVLSGSGKSMNANTITK

Protein sequences, listed by entry. Tags and fused reporters are not part of them. Lines headed by an entry give the natural chain unless they say otherwise; changes in a name come on top. Residues count along the entry.
UniProt O95398, residues 43-923: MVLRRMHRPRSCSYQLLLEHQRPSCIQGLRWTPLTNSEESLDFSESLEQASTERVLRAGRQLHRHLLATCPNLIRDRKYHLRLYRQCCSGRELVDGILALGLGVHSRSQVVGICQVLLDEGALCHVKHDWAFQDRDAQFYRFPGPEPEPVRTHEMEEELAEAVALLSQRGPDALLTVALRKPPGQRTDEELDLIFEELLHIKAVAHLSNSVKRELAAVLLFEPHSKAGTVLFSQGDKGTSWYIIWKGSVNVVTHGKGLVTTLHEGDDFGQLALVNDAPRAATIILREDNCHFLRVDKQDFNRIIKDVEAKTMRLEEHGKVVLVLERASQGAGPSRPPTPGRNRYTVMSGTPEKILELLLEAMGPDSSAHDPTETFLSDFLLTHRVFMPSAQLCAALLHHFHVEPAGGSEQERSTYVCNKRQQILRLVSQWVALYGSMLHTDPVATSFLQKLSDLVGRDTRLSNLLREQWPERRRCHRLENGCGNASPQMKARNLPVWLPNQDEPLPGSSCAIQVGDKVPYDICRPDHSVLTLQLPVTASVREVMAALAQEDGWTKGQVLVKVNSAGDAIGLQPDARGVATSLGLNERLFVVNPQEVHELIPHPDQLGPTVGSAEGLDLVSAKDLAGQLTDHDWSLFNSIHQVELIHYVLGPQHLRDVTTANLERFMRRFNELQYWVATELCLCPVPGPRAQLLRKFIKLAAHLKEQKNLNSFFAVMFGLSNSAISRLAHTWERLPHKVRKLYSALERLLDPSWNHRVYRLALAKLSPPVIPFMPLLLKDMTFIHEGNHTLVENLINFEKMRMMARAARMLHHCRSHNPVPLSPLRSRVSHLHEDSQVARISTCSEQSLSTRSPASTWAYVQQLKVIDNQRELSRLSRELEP
UniProt P07355: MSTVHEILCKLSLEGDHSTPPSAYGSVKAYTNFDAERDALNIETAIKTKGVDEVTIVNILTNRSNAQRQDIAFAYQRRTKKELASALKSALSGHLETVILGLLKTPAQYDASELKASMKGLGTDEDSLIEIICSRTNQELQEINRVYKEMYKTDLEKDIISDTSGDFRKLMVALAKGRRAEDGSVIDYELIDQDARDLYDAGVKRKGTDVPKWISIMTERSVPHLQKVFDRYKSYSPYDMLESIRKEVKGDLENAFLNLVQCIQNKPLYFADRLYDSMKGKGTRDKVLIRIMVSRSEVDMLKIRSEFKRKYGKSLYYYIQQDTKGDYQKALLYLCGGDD
UniProt Q14974: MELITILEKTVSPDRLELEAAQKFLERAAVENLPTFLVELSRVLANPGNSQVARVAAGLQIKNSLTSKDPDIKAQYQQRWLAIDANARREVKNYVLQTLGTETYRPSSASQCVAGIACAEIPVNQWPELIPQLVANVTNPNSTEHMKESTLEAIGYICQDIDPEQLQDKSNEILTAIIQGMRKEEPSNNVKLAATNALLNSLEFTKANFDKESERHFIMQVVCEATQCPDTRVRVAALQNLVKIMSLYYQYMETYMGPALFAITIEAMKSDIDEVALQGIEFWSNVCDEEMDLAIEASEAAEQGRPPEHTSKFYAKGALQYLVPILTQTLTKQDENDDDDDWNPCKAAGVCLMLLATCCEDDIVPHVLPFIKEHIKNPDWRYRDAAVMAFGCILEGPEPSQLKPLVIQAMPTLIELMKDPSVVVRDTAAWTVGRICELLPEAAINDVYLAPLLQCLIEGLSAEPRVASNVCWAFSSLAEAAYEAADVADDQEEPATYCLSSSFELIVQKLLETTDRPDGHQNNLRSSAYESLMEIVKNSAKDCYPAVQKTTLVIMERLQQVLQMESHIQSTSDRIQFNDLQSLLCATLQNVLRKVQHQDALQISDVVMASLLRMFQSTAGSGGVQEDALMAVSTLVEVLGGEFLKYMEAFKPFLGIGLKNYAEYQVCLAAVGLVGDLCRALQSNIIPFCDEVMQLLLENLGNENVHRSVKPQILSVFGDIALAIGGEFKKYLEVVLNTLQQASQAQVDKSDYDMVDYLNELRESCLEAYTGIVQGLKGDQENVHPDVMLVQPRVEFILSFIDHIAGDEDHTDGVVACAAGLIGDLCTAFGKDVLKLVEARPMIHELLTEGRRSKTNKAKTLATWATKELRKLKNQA
UniProt P52948, residues 1-880: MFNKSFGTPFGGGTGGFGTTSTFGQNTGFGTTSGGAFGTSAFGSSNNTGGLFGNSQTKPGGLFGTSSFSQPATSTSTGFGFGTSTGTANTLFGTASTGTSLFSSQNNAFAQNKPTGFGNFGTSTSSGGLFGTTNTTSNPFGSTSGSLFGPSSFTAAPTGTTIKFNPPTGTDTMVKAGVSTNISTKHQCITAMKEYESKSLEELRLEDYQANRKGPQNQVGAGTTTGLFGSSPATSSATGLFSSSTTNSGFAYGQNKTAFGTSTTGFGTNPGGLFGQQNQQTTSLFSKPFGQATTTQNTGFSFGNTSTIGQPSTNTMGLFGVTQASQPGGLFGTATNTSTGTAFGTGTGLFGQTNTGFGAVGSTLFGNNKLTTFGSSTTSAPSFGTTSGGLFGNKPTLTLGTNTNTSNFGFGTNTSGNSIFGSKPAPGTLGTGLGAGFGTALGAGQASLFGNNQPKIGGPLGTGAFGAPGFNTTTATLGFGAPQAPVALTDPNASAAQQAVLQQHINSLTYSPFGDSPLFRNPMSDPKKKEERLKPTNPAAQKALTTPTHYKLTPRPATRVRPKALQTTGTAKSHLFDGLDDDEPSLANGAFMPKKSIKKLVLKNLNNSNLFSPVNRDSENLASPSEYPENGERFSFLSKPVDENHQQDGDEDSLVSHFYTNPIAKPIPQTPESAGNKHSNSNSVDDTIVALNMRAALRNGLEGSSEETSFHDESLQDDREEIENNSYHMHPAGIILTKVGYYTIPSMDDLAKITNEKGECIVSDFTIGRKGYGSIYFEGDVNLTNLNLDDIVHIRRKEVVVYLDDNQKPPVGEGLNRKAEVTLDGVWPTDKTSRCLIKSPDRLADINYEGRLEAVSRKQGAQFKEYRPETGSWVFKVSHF
UniProt O75925: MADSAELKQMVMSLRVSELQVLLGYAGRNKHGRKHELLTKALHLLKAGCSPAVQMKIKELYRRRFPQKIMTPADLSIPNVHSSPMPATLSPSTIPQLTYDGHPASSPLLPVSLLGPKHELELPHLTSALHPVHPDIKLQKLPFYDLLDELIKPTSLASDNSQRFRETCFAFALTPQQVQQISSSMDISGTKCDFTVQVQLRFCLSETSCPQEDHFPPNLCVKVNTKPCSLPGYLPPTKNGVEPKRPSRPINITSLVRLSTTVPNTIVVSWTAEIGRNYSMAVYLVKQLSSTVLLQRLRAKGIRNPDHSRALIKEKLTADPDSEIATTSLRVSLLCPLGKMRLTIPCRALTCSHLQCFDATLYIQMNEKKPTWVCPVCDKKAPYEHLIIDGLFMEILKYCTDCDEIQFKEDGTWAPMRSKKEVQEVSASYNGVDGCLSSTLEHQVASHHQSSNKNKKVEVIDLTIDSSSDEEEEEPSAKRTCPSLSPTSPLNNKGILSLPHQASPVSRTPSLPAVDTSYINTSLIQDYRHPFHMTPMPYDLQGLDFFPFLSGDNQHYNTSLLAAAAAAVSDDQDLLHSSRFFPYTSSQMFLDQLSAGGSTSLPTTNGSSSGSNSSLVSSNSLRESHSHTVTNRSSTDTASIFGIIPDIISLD
UniProt P63165, residues 1-97: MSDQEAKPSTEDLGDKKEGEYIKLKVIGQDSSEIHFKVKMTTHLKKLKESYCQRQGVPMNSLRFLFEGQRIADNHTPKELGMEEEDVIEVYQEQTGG
UniProt P61956: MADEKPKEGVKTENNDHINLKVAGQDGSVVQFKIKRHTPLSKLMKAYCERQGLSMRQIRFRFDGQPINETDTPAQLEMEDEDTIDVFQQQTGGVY
UniProt P55854, residues 1-92: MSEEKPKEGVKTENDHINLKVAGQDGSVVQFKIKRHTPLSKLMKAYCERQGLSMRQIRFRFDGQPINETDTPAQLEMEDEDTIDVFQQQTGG
UniProt P63279: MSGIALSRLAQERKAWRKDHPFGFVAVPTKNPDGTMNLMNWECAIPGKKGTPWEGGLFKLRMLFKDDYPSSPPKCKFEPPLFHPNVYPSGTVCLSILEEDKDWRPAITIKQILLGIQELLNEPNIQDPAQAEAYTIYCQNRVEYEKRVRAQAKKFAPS

molecular target: full-length Epac1 with a C-terminal FLAG/HA tandem epitope tag (human) (UniProt O95398); assay: affinity purification with mass spectrometry

binding | Molecule
binds | Annexin A2 (from UniProt P07355 1-339)
binds | Importin β1 (from UniProt Q14974 1-876)
binds | Nup98 (from UniProt P52948 1-880)
binds | PIAS1 (from UniProt O75925 1-651)
binds | RanBP2 (from UniProt P49792 1-3224)
binds | SUMO1 (from UniProt P63165 1-97)
binds | SUMO2 (from UniProt P61956)
binds | SUMO3 (from UniProt P55854 1-92)
binds | SUMO-conjugating enzyme E2 (UBC9) (from UniProt P63279 1-158)
binds | B1
